The source of these data is patent US20250276077A1, “EPHA2 ANTIBODIES” (Immunome, Inc., priority 2022, published 2025).

By UniProt entry, the sequences of proteins in these tests, tags left out. Where a name states a change or a piece, a line headed by the entry shows the natural chain unless it says otherwise. Residues count along the entry.
UniProt P29317: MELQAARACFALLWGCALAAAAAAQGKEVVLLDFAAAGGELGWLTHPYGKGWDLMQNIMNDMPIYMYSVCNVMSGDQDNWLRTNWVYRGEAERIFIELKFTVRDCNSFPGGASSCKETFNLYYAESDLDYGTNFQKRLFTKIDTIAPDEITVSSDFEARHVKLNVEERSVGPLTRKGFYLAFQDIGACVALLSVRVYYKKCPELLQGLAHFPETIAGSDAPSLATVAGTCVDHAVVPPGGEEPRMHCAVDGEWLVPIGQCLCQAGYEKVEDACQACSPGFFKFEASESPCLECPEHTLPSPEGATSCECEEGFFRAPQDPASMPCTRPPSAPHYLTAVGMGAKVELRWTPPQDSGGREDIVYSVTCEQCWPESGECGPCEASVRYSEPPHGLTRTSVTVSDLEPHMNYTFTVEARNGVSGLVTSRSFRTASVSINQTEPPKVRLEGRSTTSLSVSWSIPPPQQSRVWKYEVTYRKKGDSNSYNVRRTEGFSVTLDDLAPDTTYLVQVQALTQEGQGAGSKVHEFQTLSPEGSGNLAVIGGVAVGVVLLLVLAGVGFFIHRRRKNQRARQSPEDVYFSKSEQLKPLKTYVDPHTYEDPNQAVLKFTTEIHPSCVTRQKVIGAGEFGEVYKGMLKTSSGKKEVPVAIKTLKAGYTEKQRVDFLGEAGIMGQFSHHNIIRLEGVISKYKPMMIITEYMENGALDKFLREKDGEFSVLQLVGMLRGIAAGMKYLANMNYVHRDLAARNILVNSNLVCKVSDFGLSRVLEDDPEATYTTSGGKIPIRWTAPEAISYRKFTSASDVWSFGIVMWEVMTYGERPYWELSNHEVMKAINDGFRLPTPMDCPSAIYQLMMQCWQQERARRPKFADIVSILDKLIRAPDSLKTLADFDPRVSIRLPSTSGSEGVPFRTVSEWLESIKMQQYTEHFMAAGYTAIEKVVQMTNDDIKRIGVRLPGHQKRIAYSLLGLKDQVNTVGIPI
UniProt P20827, residues 19-182: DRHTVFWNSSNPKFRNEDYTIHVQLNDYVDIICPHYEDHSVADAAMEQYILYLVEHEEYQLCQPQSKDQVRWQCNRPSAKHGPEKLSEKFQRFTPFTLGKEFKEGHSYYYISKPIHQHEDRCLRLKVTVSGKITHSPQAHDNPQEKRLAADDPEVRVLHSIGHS

No constants are given. Whether binding was seen depends on the method and setting. Some results given as binding are weak or reduced against the parent protein; the word gives no strength.

Assay [1] has as its target Extracellular domain of human EphA2 (25-534) with a C-terminal HIS tag (R&D Systems, 3035-A2) (human) (UniProt P29317). The assay is described as follows: BLI in-tandem binning matrix, EphA2 ECD-His; competitor: 8873-2.
For assay [2] the target is unchanged. The assay is described as follows: BLI in-tandem binning matrix, EphA2 ECD-His; competitor: 10018-01.

Turning to “EphrinA1 fused to Fc (Acro, EF1-H5251) (from UniProt P20827 19-182) (Fc fusion)”, the binding result in assay [1] and in assay [2] was “binds” each time.
